From the supplement of paper PMC12823440, “Inhibitors supercharge kinase turnover through native proteolytic circuits” (Nature, 2025)
Where a name gives a salt, the structure may show the parent alone. Some of the results follow. The calls rarely recur for the same compound in another form.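 Kinases were expressed as nanoluciferase fusions in K562 cells and luminescence was read every 4 h between 2 and 18 h as percent of control, DMSO set to 100% and a positive control to 0%. A time point counts as decreased when the signal drops significantly (2 sigma). The hit call is the authors' own, does not follow from the count of time points alone, and its rule is not shown.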

The chains behind the UniProt entries cited, without tags or fusion partners. Where a name states a change or a piece, a line headed by the entry shows the natural chain unless it says otherwise.
UniProt P50750, whole entry: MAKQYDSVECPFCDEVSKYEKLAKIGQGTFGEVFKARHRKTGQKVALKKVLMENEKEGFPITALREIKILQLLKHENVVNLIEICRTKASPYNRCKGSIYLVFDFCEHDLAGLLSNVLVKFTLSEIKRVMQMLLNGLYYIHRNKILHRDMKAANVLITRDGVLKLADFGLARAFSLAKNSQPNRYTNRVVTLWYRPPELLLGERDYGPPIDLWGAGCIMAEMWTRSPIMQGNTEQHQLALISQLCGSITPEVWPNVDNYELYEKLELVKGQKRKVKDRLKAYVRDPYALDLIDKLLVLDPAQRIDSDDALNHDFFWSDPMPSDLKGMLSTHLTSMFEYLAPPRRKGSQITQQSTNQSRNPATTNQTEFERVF
UniProt O96017, whole entry: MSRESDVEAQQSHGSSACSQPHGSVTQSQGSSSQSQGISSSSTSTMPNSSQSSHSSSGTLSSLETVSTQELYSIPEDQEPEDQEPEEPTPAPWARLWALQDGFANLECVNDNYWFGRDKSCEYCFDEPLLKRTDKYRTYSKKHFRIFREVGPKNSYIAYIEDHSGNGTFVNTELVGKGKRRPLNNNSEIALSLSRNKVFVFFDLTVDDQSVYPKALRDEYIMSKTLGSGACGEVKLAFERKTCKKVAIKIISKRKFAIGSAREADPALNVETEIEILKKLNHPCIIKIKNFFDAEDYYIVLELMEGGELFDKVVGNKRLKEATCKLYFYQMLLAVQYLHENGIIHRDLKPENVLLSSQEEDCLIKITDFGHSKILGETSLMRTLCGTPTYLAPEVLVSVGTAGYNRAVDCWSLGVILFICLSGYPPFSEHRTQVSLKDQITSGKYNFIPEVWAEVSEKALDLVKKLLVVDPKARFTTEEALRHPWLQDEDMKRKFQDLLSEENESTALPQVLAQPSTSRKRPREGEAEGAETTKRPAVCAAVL
UniProt P07333, whole entry: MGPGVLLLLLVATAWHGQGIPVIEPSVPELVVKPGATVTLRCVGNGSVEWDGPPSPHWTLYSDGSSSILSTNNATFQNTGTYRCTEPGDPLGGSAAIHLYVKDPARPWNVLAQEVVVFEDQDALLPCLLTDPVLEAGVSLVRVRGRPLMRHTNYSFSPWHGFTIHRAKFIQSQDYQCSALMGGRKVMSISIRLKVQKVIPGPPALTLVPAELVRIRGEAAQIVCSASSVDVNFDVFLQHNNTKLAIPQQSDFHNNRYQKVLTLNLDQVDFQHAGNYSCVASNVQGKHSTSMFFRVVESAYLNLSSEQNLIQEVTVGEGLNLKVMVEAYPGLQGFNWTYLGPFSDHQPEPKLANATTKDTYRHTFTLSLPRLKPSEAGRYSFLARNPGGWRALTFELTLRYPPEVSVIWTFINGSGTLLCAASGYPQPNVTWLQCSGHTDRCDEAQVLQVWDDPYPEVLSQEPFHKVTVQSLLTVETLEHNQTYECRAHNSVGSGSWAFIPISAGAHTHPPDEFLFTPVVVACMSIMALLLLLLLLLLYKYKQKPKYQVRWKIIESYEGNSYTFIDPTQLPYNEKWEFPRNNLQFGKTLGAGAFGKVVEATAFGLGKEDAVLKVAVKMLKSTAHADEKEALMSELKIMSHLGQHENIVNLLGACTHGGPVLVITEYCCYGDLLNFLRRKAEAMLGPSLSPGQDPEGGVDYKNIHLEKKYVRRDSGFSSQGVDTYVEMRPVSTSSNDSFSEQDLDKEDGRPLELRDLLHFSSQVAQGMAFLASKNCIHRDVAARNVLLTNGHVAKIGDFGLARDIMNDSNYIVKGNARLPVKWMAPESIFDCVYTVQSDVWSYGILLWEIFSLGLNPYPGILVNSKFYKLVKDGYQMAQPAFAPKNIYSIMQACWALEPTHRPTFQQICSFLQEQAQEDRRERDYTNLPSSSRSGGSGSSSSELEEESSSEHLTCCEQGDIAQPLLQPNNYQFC
UniProt P41240: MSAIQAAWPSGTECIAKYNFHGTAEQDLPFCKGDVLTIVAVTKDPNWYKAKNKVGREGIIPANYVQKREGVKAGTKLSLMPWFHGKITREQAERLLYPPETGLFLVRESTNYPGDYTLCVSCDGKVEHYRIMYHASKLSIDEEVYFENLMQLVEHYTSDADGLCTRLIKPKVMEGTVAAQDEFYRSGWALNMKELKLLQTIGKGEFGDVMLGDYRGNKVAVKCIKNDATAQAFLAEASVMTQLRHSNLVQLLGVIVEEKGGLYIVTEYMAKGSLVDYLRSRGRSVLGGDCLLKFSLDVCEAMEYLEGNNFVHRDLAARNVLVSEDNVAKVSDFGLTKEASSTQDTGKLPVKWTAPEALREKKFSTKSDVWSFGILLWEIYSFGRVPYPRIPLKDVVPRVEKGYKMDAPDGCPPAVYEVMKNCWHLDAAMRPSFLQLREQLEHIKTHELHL
UniProt P48729: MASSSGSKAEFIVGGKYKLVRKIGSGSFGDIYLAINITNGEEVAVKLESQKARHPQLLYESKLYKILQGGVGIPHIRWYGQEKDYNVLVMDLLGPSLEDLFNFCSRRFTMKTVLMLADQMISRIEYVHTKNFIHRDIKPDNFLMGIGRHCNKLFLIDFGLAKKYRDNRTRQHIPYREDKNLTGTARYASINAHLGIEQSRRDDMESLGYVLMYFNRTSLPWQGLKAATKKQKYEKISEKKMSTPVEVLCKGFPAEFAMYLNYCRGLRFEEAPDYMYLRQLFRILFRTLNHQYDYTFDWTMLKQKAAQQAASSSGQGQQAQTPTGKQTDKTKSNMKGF
UniProt Q08345: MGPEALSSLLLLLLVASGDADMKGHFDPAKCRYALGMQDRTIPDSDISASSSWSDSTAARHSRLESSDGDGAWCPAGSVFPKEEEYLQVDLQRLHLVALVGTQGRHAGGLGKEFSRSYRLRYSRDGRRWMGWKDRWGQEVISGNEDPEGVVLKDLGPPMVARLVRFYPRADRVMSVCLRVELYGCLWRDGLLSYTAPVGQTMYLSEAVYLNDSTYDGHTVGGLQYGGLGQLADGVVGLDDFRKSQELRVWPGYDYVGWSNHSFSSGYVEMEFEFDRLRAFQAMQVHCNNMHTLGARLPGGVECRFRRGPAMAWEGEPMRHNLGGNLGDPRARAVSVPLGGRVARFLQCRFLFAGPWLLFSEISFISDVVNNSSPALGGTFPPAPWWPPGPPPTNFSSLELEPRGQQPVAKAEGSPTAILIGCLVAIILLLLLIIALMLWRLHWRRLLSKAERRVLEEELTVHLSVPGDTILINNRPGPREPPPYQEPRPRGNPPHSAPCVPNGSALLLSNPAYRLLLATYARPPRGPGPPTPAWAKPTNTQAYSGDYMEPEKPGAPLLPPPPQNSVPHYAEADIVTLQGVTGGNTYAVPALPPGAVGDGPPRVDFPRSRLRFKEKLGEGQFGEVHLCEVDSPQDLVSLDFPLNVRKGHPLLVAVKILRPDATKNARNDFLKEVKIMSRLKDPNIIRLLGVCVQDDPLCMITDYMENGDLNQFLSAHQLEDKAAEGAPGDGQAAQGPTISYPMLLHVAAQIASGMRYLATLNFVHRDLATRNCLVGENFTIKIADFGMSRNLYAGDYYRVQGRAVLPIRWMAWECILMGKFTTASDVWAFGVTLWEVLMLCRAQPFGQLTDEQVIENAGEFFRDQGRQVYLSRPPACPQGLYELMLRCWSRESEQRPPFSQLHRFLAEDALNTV
UniProt Q92630: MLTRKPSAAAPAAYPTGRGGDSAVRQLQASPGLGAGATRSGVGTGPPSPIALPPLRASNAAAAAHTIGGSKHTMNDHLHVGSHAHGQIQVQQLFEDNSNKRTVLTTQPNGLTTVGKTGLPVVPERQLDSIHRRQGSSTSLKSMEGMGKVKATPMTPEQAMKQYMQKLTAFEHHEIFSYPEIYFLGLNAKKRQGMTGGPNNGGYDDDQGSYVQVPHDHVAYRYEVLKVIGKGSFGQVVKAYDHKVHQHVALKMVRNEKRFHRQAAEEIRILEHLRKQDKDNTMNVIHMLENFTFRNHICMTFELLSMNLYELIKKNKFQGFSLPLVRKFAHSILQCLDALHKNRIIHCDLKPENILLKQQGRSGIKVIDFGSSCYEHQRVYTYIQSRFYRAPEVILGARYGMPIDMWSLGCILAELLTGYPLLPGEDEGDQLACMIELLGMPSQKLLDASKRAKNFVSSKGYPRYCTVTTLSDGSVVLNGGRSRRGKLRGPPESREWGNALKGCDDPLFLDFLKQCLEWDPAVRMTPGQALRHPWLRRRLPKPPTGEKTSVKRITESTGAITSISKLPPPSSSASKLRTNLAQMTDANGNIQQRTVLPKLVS
UniProt P29317, whole entry: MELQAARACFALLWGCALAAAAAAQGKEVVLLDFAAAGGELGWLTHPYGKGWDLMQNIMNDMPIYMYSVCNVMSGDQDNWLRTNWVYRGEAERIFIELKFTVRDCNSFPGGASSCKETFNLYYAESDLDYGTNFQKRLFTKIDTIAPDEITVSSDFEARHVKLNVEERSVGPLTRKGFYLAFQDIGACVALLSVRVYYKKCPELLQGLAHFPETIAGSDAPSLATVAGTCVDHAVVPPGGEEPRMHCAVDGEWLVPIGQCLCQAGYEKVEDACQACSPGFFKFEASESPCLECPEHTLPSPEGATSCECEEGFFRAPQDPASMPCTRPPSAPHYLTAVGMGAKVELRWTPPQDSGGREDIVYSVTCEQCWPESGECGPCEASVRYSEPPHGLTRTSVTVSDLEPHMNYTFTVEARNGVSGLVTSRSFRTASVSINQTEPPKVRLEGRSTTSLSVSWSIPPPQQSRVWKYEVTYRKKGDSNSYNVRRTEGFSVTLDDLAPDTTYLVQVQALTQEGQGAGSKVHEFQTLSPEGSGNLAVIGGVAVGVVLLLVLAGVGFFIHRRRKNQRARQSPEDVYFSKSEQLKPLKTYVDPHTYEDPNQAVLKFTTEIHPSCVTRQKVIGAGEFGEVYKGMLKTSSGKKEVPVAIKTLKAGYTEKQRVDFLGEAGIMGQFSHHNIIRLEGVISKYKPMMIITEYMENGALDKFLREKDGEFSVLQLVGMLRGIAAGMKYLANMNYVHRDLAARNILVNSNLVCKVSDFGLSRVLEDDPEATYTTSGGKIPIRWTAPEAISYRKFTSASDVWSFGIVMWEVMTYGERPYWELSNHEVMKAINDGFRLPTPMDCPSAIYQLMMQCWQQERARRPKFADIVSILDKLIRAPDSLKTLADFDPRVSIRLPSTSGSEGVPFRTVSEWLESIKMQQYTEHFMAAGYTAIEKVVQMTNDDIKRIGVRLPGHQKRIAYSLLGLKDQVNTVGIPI
UniProt P21860, whole entry: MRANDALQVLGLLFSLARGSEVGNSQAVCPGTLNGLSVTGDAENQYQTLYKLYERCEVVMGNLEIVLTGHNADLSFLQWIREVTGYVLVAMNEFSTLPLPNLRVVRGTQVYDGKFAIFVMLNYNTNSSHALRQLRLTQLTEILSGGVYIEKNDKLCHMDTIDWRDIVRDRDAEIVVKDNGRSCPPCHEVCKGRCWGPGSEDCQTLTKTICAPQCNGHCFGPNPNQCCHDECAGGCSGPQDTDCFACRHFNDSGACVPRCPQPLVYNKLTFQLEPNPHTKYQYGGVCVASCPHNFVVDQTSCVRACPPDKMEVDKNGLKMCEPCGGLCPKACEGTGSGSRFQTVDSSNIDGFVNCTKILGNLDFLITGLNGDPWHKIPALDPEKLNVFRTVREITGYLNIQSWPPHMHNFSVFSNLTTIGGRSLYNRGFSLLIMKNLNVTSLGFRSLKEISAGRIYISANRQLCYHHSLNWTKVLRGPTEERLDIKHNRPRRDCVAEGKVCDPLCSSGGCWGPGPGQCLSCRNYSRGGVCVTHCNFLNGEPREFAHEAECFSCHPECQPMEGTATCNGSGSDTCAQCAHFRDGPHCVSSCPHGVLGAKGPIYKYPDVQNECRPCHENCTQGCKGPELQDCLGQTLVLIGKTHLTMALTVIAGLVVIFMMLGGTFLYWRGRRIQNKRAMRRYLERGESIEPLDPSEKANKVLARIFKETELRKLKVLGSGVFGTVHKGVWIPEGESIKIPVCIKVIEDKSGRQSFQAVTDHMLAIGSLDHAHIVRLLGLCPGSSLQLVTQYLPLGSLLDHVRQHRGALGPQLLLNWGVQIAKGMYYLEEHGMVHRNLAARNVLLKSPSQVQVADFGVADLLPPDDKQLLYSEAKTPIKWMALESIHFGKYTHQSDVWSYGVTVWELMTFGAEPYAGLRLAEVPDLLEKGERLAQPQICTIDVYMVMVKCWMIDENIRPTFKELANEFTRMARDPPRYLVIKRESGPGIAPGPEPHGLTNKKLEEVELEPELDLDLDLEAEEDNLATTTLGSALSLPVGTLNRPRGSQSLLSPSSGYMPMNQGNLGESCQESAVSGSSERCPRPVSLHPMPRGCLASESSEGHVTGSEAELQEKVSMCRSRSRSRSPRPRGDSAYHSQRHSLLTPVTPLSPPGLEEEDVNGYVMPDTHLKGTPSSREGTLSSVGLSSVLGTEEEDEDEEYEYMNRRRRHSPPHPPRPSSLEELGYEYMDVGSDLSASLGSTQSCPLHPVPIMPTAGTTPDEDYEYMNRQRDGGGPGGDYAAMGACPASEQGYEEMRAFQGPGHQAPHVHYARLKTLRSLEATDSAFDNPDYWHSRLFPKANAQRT

Experiments:
Assay in all cases: kinase-Nluc reporter destabilization hit call (1 = scored as downregulated) (binary); higher = compound decreases kinase abundance
Conditions in all cases: K562; 2-18 h
CDK7 = CDK7 (UniProt P50613)
CDK9 = CDK9 (UniProt P50750)
CHEK2 = CHEK2 (UniProt O96017)
CSF1R = CSF1R (UniProt P07333)
CSK = CSK (UniProt P41240)
CSNK1A1 = CSNK1A1 (UniProt P48729)
CSNK1D = CSNK1D (UniProt P48730)
DDR1 = DDR1 (UniProt Q08345)
DYRK1B = DYRK1B (UniProt Q9Y463)
DYRK2 = DYRK2 (UniProt Q92630)
EGFR = EGFR (UniProt P00533)
EGFR_G719S = EGFR_G719S (UniProt P00533)
EGFR_G719S_T790M = EGFR_G719S_T790M (UniProt P00533)
EGFR_L718V = EGFR_L718V (UniProt P00533)
EGFR_L858R = EGFR_L858R (UniProt P00533)
EGFR_L861Q = EGFR_L861Q (UniProt P00533)
EGFR_T790M = EGFR_T790M (UniProt P00533)
EPHA2 = EPHA2 (UniProt P29317)
ERBB3 = ERBB3 (UniProt P21860)
[1] = target: ERBB4_R711C (clone: ERBB4_mut) (UniProt Q15303)

Measured: kinase-Nluc reporter destabilization hit call

Cc1cnc(Nc2ccc(F)cc2Cl)nc1-c1c[nH]c(C(=O)N[C@H](CO)c2cccc(Cl)c2)c1 (10 µM)
inactive: CDK7 = 0 | CDK9 = 0 | CHEK2 = 0 | CSF1R 0 | CSK 0 | CSNK1A1 = 0 | CSNK1D 0 | DDR1 = 0 | DYRK1B 0 | DYRK2 = 0 | EGFR 0 | EGFR_G719S 0 | EGFR_G719S_T790M 0 | EGFR_L718V 0 | EGFR_L858R 0 | EGFR_L861Q 0 | EGFR_T790M 0 | EPHA2 = 0 | ERBB3 = 0 | [1] 0

NCCNS(=O)(=O)c1ccc(Cl)c2ccncc12 [CKI-7 (free base)] (10 µM)
inactive: CDK7 = 0 | CDK9 = 0 | CHEK2 = 0 | CSF1R 0 | CSK 0 | CSNK1A1 = 0 | CSNK1D 0 | DDR1 = 0 | DYRK1B 0 | DYRK2 = 0 | EGFR 0 | EGFR_G719S 0 | EGFR_G719S_T790M 0 | EGFR_L718V 0 | EGFR_L858R 0 | EGFR_L861Q 0 | EGFR_T790M 0 | EPHA2 = 0 | ERBB3 = 0 | [1] 0

C[C@@H](NC(=O)c1ncnc(N)c1Cl)c1ncc(C(=O)Nc2cc(C(F)(F)F)c(Cl)cn2)s1 (2.5 µM)
inactive: CDK7 = 0 | CDK9 = 0 | CHEK2 = 0 | CSF1R 0 | CSK 0 | CSNK1A1 = 0 | CSNK1D 0 | DDR1 = 0 | DYRK1B 0 | DYRK2 = 0 | EGFR 0 | EGFR_G719S 0 | EGFR_G719S_T790M 0 | EGFR_L718V 0 | EGFR_L858R 0 | EGFR_L861Q 0 | EGFR_T790M 0 | EPHA2 = 0 | ERBB3 = 0 | [1] 0

C[C@H](Nc1cc2c(-c3ccc4c(c3)OCO4)noc2cn1)c1ccccc1 (10 µM)
inactive: CDK7 = 0 | CDK9 = 0 | CHEK2 = 0 | CSF1R 0 | CSK 0 | CSNK1A1 = 0 | CSNK1D 0 | DDR1 = 0 | DYRK1B 0 | DYRK2 = 0 | EGFR 0 | EGFR_G719S 0 | EGFR_G719S_T790M 0 | EGFR_L718V 0 | EGFR_L858R 0 | EGFR_L861Q 0 | EGFR_T790M 0 | EPHA2 = 0 | ERBB3 = 0 | [1] 0

CC(C)(Oc1ccc(Cl)cc1)C(=O)Nc1ccc(OCc2ccc(C#N)cc2)cc1 [AMPK activator 4] (10 µM)
inactive: CDK7 = 0 | CDK9 = 0 | CHEK2 = 0 | CSF1R 0 | CSK 0 | CSNK1A1 = 0 | CSNK1D 0 | DDR1 = 0 | DYRK1B 0 | DYRK2 = 0 | EGFR 0 | EGFR_G719S 0 | EGFR_G719S_T790M 0 | EGFR_L718V 0 | EGFR_L858R 0 | EGFR_L861Q 0 | EGFR_T790M 0 | EPHA2 = 0 | ERBB3 = 0 | [1] 0

CNc1cc2c(Nc3cccc(Br)c3)ncnc2cn1 (10 µM)
inactive: CDK7 = 0 | CDK9 = 0 | CHEK2 = 0 | CSF1R 0 | CSK 0 | CSNK1A1 = 0 | CSNK1D 0 | DDR1 = 0 | DYRK1B 0 | DYRK2 = 0 | EGFR 0 | EGFR_G719S 0 | EGFR_G719S_T790M 0 | EGFR_L718V 0 | EGFR_L858R 0 | EGFR_L861Q 0 | EGFR_T790M 0 | EPHA2 = 0 | ERBB3 = 0 | [1] 0

CCOC(=O)c1c(C)[nH]c(C=C2C(=O)Nc3ccccc32)c1C (10 µM)
inactive: CDK7 = 0 | CDK9 = 0 | CHEK2 = 0 | CSF1R 0 | CSK 0 | CSNK1A1 = 0 | CSNK1D 0 | DDR1 = 0 | DYRK1B 0 | DYRK2 = 0 | EGFR 0 | EGFR_G719S 0 | EGFR_G719S_T790M 0 | EGFR_L718V 0 | EGFR_L858R 0 | EGFR_L861Q 0 | EGFR_T790M 0 | EPHA2 = 0 | ERBB3 = 0 | [1] 0

O=C(NC[C@H](O)CO)c1ccncc1Nc1ccc(I)cc1F [Pimasertib] (10 µM)
inactive: CDK7 = 0 | CDK9 = 0 | CHEK2 = 0 | CSF1R 0 | CSK 0 | CSNK1A1 = 0 | CSNK1D 0 | DDR1 = 0 | DYRK1B 0 | DYRK2 = 0 | EGFR 0 | EGFR_G719S 0 | EGFR_G719S_T790M 0 | EGFR_L718V 0 | EGFR_L858R 0 | EGFR_L861Q 0 | EGFR_T790M 0 | EPHA2 = 0 | ERBB3 = 0 | [1] 0

COCCNc1cc(NC(=O)N2CCCc3cc(CN4CCOCC4=O)c(C=O)nc32)ncc1C#N (10 µM)
inactive: CDK7 = 0 | CDK9 = 0 | CHEK2 = 0 | CSF1R 0 | CSK 0 | CSNK1A1 = 0 | CSNK1D 0 | DDR1 = 0 | DYRK1B 0 | DYRK2 = 0 | EGFR 0 | EGFR_G719S 0 | EGFR_G719S_T790M 0 | EGFR_L718V 0 | EGFR_L858R 0 | EGFR_L861Q 0 | EGFR_T790M 0 | EPHA2 = 0 | ERBB3 = 0 | [1] 0

O=C(O)/C=C(\CCc1ccc(Cl)cc1)c1ccccc1 (10 µM)
inactive: CDK7 = 0 | CDK9 = 0 | CHEK2 = 0 | CSF1R 0 | CSK 0 | CSNK1A1 = 0 | CSNK1D 0 | DDR1 = 0 | DYRK1B 0 | DYRK2 = 0 | EGFR 0 | EGFR_G719S 0 | EGFR_G719S_T790M 0 | EGFR_L718V 0 | EGFR_L858R 0 | EGFR_L861Q 0 | EGFR_T790M 0 | EPHA2 = 0 | ERBB3 = 0 | [1] 0

Structural class, the compounds so far containing a cyano group
CC(C)(Oc1ccc(Cl)cc1)C(=O)Nc1ccc(OCc2ccc(C#N)cc2)cc1 [AMPK activator 4] (10 µM)
inactive: CDK7 = 0 | CDK9 = 0 | CHEK2 = 0 | CSF1R 0 | CSK 0 | CSNK1A1 = 0 | CSNK1D 0 | DDR1 = 0 | DYRK1B 0 | DYRK2 = 0 | EGFR 0 | EGFR_G719S 0 | EGFR_G719S_T790M 0 | EGFR_L718V 0 | EGFR_L858R 0 | EGFR_L861Q 0 | EGFR_T790M 0 | EPHA2 = 0 | ERBB3 = 0 | [1] 0

COCCNc1cc(NC(=O)N2CCCc3cc(CN4CCOCC4=O)c(C=O)nc32)ncc1C#N (10 µM)
inactive: CDK7 = 0 | CDK9 = 0 | CHEK2 = 0 | CSF1R 0 | CSK 0 | CSNK1A1 = 0 | CSNK1D 0 | DDR1 = 0 | DYRK1B 0 | DYRK2 = 0 | EGFR 0 | EGFR_G719S 0 | EGFR_G719S_T790M 0 | EGFR_L718V 0 | EGFR_L858R 0 | EGFR_L861Q 0 | EGFR_T790M 0 | EPHA2 = 0 | ERBB3 = 0 | [1] 0

The list goes on:

CC1=C(C#N)C(c2ccc3[nH]nc(C)c3c2)C(C#N)=C(C)N1 (10 µM)
inactive: CDK7 = 0 | CDK9 = 0 | CHEK2 = 0 | CSF1R 0 | CSK 0 | CSNK1A1 = 0 | CSNK1D 0 | DDR1 = 0 | DYRK1B 0 | DYRK2 = 0 | EGFR 0 | EGFR_G719S 0 | EGFR_G719S_T790M 0 | EGFR_L718V 0 | EGFR_L858R 0 | EGFR_L861Q 0 | EGFR_T790M 0 | EPHA2 = 0 | ERBB3 = 0 | [1] 0

CC1(C)CN(C(=O)c2ccc(-c3cccc4nc(NC(=O)C5CC5)nn34)cc2)C1 [Solcitinib] (10 µM)
inactive: CDK7 = 0 | CDK9 = 0 | CHEK2 = 0 | CSF1R 0 | CSK 0 | CSNK1A1 = 0 | CSNK1D 0 | DDR1 = 0 | DYRK1B 0 | DYRK2 = 0 | EGFR 0 | EGFR_G719S 0 | EGFR_G719S_T790M 0 | EGFR_L718V 0 | EGFR_L858R 0 | EGFR_L861Q 0 | EGFR_T790M 0 | EPHA2 = 0 | ERBB3 = 0 | [1] 0

COc1c(O)cc(O)c2c(=O)cc(-c3ccccc3)oc12 [Wogonin] (10 µM)
inactive: CDK7 = 0 | CDK9 = 0 | CHEK2 = 0 | CSF1R 0 | CSK 0 | CSNK1A1 = 0 | CSNK1D 0 | DDR1 = 0 | DYRK1B 0 | DYRK2 = 0 | EGFR 0 | EGFR_G719S 0 | EGFR_G719S_T790M 0 | EGFR_L718V 0 | EGFR_L858R 0 | EGFR_L861Q 0 | EGFR_T790M 0 | EPHA2 = 0 | ERBB3 = 0 | [1] 0

CS[C@@]1(C(=O)Nc2ccc3[nH]nc(-c4ccc(OC(C)C)nc4)c3c2)CCN(CC(=O)N2CC=C(c3ccc(-c4ncn(C)n4)cc3)CC2)C1 (2.5 µM)
inactive: CDK7 = 0 | CDK9 = 0 | CHEK2 = 0 | CSF1R 0 | CSK 0 | CSNK1A1 = 0 | CSNK1D 0 | DDR1 = 0 | DYRK1B 0 | DYRK2 = 0 | EGFR 0 | EGFR_G719S 0 | EGFR_G719S_T790M 0 | EGFR_L718V 0 | EGFR_L858R 0 | EGFR_L861Q 0 | EGFR_T790M 0 | EPHA2 = 0 | ERBB3 = 0 | [1] 0

CN1C(=O)N[C@@H](Cc2c[nH]c3c(Cl)cccc23)C1=O [Necrostatin 2 (S enantiomer)] (10 µM)
inactive: CDK7 = 0 | CDK9 = 0 | CHEK2 = 0 | CSF1R 0 | CSK 0 | CSNK1A1 = 0 | CSNK1D 0 | DDR1 = 0 | DYRK1B 0 | DYRK2 = 0 | EGFR 0 | EGFR_G719S 0 | EGFR_G719S_T790M 0 | EGFR_L718V 0 | EGFR_L858R 0 | EGFR_L861Q 0 | EGFR_T790M 0 | EPHA2 = 0 | ERBB3 = 0 | [1] 0

O=C(Nc1ccccc1C(=O)NC1CCCCNC1=O)c1cc2ccccc2s1 (stereo not given) (10 µM)
inactive: CDK7 = 0 | CDK9 = 0 | CHEK2 = 0 | CSF1R 0 | CSK 0 | CSNK1A1 = 0 | CSNK1D 0 | DDR1 = 0 | DYRK1B 0 | DYRK2 = 0 | EGFR 0 | EGFR_G719S 0 | EGFR_G719S_T790M 0 | EGFR_L718V 0 | EGFR_L858R 0 | EGFR_L861Q 0 | EGFR_T790M 0 | EPHA2 = 0 | ERBB3 = 0 | [1] 0

Oc1ccc(-c2cnc3ccc(NCc4ccco4)nn23)cc1 [IRAK inhibitor 2] (2.5 µM)
inactive: CDK7 = 0 | CDK9 = 0 | CHEK2 = 0 | CSF1R 0 | CSK 0 | CSNK1A1 = 0 | CSNK1D 0 | DDR1 = 0 | DYRK1B 0 | DYRK2 = 0 | EGFR 0 | EGFR_G719S 0 | EGFR_G719S_T790M 0 | EGFR_L718V 0 | EGFR_L858R 0 | EGFR_L861Q 0 | EGFR_T790M 0 | EPHA2 = 0 | ERBB3 = 0 | [1] 0

COc1ccc(CCNCc2ccc(OCc3ccc(Cl)nc3)c(OC)c2)cc1OC [SBE13 (Hydrochloride)] (10 µM)
inactive: CDK7 = 0 | CDK9 = 0 | CHEK2 = 0 | CSF1R 0 | CSK 0 | CSNK1A1 = 0 | CSNK1D 0 | DDR1 = 0 | DYRK1B 0 | DYRK2 = 0 | EGFR 0 | EGFR_G719S 0 | EGFR_G719S_T790M 0 | EGFR_L718V 0 | EGFR_L858R 0 | EGFR_L861Q 0 | EGFR_T790M 0 | EPHA2 = 0 | ERBB3 = 0 | [1] 0
